The source of these data is PubChem BioAssay AID1347423 (Functional Genomics Laboratory (NCATS/FGL), 2020).

About 210 (0.4%) of roughly 52,000 sequences were called active.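 How the source made its calls: active means gene whose silencing raises cell survival under the drug, median off-target-corrected z-score across its silencing RNAs 2 or more; inactive means the rest.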 The list shows a part of the results.

The nature of this experiment: Resistance to Poly (ADP-Ribose) Polymerase inhibitor: Gene Identification via Genome-wide siRNA Screen. The following applies: mouse BRCA2 R2336H ES cells, olaparib, CellTiter-Glo viability; stronger effect = higher value. A digest of the protocol:
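Genome-wide siRNA screen (3 siRNAs/gene, 20 nM) in mouse ES cells carrying hypomorphic BRCA2 R2336H; olaparib 500 nM added 48 h post-transfection, CellTiter-Glo viability 72 h later. Normalized to plate-median negative control; MAD z-scores, gene median, seed-adjusted.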
For orientation: ATP-based viability assays read luminescence as a measure of living cells.
Regarding CCAGCAUAUCUACUGUUCUTT against V1rf2, the z-score was inactive: -0.647.

As to GGUUGGACAGAAACAUCAGTT against Rab7l1, the z-score was inactive: 3.01.

As to GCAACAACCGCACAUCUCATT against Cdc26, the z-score was inactive: -1.48.

For the sequence “GGUUGGAAUUGUGCAAUAATT against A630050E13Rik”, the z-score was inactive: -1.86.

Take GAUUUCUAUACAGCCUAUCTT against Olfr799: the z-score is inactive: -1.27.

Consider GCAGAUUUGAAUUCAGACATT against Mup4, for which the z-score was inactive: -0.0856.

Consider “CUUAGACCCAAUUCAAUUCTT against A830025F02Rik”, for which the z-score was inactive: 3.01.

As to GGAAACUCCAACUUGUUUGTT against Ankra2, the z-score was inactive: -0.105.

“GGGUUUUUCAUGUGUUUACTT against 2400008B06Rik”: the z-score was inactive: -1.08.

Regarding GGUGAGCAUCGUGUUCAUCTT against Galntl4, the z-score is inactive: 1.65.

“GGAGAUUUAACUGAAAGACTT against D12Ertd748e”: the z-score was inactive: -0.651.

In the case of GGAAAAAGCCAAUUAUGUCTT against Fbxl2, the z-score is inactive: 1.22.

As to GGUUUCUGGAAGAAACUGGTT against Rpo1-4, the z-score was inactive: 1.86.

On to GGAUGAGGACACCAUUGAUTT against Sumo3, for which the z-score is inactive: -1.86.

As for GGGAGAACCGGAUGAGAUUTT against Itpa, the z-score is inactive: -1.22.

For the sequence GGGUCAUCUUACCACAGUUTT against Nptxr, the z-score was inactive: -0.0266.

In the case of CCACCUCCUCUCGAUACAATT against Zfp36, the z-score was inactive: -1.04.

Turning to GGCCUCAUCUUGAAUAUUUTT against Hsd17b3, the z-score is inactive: -0.342.

Regarding GUUCUGAAAAUAGAAUAAUTT against V1rc29, the z-score was inactive: 0.713.

In the case of GGAAAGAUGUGGUCCAGCUTT against Sirt3, the z-score was inactive: -1.23.

For GGAUACCUGAAAAUUGAUATT against Npr1, the z-score is inactive: -0.267.

On to GGAGUUUUUAUUCAAGGAATT against Slc35b3, for which the z-score is inactive: 0.606.

With GCCUCAACUCAAGCCUUCATT against Olfr525, the z-score was inactive: -1.09.

In the case of “CCAACUAAUCCCAUAUUCCTT against 1200015A22Rik”, the z-score was inactive: 0.294.

For the sequence “GGUCAUUUGUUGUAUGUAGTT against C230004F18Rik”, the z-score was inactive: 1.25.

Consider “GGACUGCCUUAAUUAAAGUTT against 1810063B05Rik”, for which the z-score was inactive: -0.477.

With GGUCACAUUUAAUGUCACATT against Itgam, the z-score is inactive: 0.129.

Turning to GGAGGAUCCUCUAAAACAGTT against Slc23a3, the z-score is inactive: -0.453.

Regarding GGCAGUUUGGACAGCAAGATT against Mybl2, the z-score is inactive: 0.628.

Consider “GGCAAUUCACUGUGAGUAATT against 2310038H17Rik”, for which the z-score is inactive: 0.159.

For the sequence GGGAAAAUCCCAAAACUGUTT against Serpinb1a, the z-score was inactive: 1.01.

Consider GGCAAAAAACAAAGACCUUTT against Plfr, for which the z-score was inactive: 1.01.

Consider GGAGGUAUUCACAGAACUGTT against U2af1l4, for which the z-score is inactive: -1.78.

As for GCAACUAUCUGCUUAUUUATT against BC019731, the z-score is inactive: 2.25.

Turning to GGUCUUGCUGAUCAACAACTT against Bai2, the z-score was inactive: 1.56.

In the case of GGACACAGUCAGACAAAUCTT against Olfr1161, the z-score was inactive: -0.515.

On to “GGCCUCCAAAUGAACAGCATT against 6720458F09Rik”, for which the z-score was inactive: 1.74.

As to GGCAUGGCUGGCAAAAACATT against Myd116, the z-score is inactive: 2.22.

Regarding GGUGAUUGCCCACAAUCAGTT against Mthfs, the z-score was inactive: -0.726.

As to GGUUUUCACCCUGAAUGUGTT against Siglecl1, the z-score was inactive: -0.536.

Turning to “GGCCUGUGAGCUAUGUAUCTT against 2310002B14Rik”, the z-score was inactive: -0.333.

Turning to GGUGUCUUAUGAGCAAUAUTT against Pdcd6, the z-score is inactive: 0.346.

As to “GGCUGUUUGCGUGAUAGACTT against 1200011O22Rik”, the z-score was inactive: 1.22.

As to CCGUGCAGAUUAACUUCUUTT against Plk1, the z-score is inactive: -2.48.

Consider GCUAAGACACGAUAAACUUTT against Yes, for which the z-score is inactive: 0.376.

Consider GGUCCUACUUACUACUGCCTT against AA409316, for which the z-score is inactive: -0.959.

Regarding GGUUAUGCAUUACUCUCUUTT against Prkdc, the z-score is inactive: 0.32.

For GGAGAUCAACAUCUAUCAGTT against 1-Sep, the z-score is inactive: 0.556.

As for “GGGAAAAACACUUCUCACUTT against A530082C11Rik”, the z-score was inactive: -0.215.

For the sequence GCAACCUCUCCUCUCUAGATT against Olfr15, the z-score was inactive: 0.597.

On to GGUUCUUACUUGUAAAUAGTT against Sdad1, for which the z-score was inactive: -0.462.

For GGUCUCACAAAAACAGUUCTT against Casq2, the z-score is inactive: -0.446.

For the sequence GGAAGUGUGACAGAAUGCGTT against Loxl3, the z-score was inactive: 0.0492.

Take GGAGCAUGGAUAAUUACAGTT against Trpm6: the z-score was inactive: -1.34.

Regarding GGAGUUUCUCUUUAAUCCUTT against Hoxc8, the z-score was inactive: 0.862.

Consider “GGAGCAAUGGCUAGCAGUUTT against 3110040N11Rik”, for which the z-score is inactive: 2.38.

As to GCAACUAUCCACUCUCUGCTT against Grcc2f, the z-score is inactive: -2.34.

Turning to GGCAGUCGAUACAAACUUUTT against Fto, the z-score was inactive: -0.174.

For “GGCCAUCGCACUUAAACUUTT against 1700123K08Rik”, the z-score is inactive: 0.275.

Turning to GGAGAAAAGAGUUUGCCCGTT against Wfdc12, the z-score was inactive: 0.709.

As for GGGCUUGUUUUUGCACUUATT against Blcap, the z-score was inactive: 0.2.

For the sequence GCCCAUGUGUAAUACAUUUTT against Prps1, the z-score was inactive: 0.16.

For GGGUGAAGGACAAGAAAAUTT against Hoxd13, the z-score is inactive: -1.09.

In the case of GGCAGCCAUAAUCACAAUGTT against LOC435285, the z-score is inactive: 1.45.

Consider GGAAGACAUAUUUCAACAGTT against Ehhadh, for which the z-score is inactive: 0.4.

For the sequence GGGACUCACAUUUAAACAATT against Rg9mtd2, the z-score is inactive: -0.826.

On to GGGAGAUAAAAAGUUAAGGTT against Bclaf1, for which the z-score was inactive: 0.0648.

As for GCAUUUGGUUCGACAUAUATT against Pcnx, the z-score was inactive: 0.533.

In the case of GGACUUUUCUUUUGGAAGGTT against Nbl1, the z-score was inactive: 0.0954.

For GGUCAAGUCAAUUACAGUUTT against Pdcd8, the z-score is inactive: -0.432.

In the case of GGUUGAUGGGUAAUAAACUTT against Nfatc4, the z-score is inactive: 0.0528.

In the case of “GGCCUCAAACUGAAUAUUATT against C730040N12Rik”, the z-score was inactive: 0.0416.

On to GUUUGAAACUCACUGGAAATT against V1rg5, for which the z-score was inactive: 1.13.

Regarding CCUUCAAAGUAACUCUUAGTT against AI467503, the z-score is inactive: -2.08.

For the sequence “GGAACAGUUACGAAAAGUGTT against 5730409F24Rik”, the z-score is inactive: -1.54.

For the sequence GGAGACAUCUCAAAUGAUATT against Trim30, the z-score was inactive: -0.567.

For the sequence “GGUGCUAAGUUUUGUAUCUTT against 2410002M20Rik”, the z-score was inactive: -0.555.

On to “GGGUAUAGCCAGUACCAACTT against 1500006O09Rik”, for which the z-score is inactive: -1.91.

Take “GGAGAAAUGAAGAUUGUGGTT against 1810021J13Rik”: the z-score was inactive: 0.618.

For the sequence GGAAUCCAUGCAGAAAUAATT against Pcdhga6, the z-score was inactive: 1.54.

For the sequence “GGAGUUGGCCAUGUGGAAATT against 0610008N23Rik”, the z-score was inactive: 0.21.

As for GGCAGCUGGCUAUUUUCACTT against AI931714, the z-score was inactive: -0.739.

Take GGUAUUUUGUAGCACUUAATT against Fgf20: the z-score is inactive: -1.14.

For the sequence “GGAAACUGUAAGUGUCAAUTT against 2600002E23Rik”, the z-score was inactive: 0.0757.

Take “CGGCUCGUACACAUGUGAATT against 5730592L21Rik”: the z-score was inactive: -0.129.

As for “GGUAGAAAAAACACAAACGTT against 4930511A21Rik”, the z-score was inactive: 0.174.

Regarding GAGAGUGUGCUUCACACACTT against Olfr646, the z-score is inactive: -0.64.

With GCGACAUAAACAUUGUGGUTT against Adamts18, the z-score was inactive: 0.545.

On to GGAGAAGGUUCGAAGAAGCTT against BC003322, for which the z-score is inactive: -0.27.

For GGCAGUUAGAUGUCAGUGCTT against Edn1, the z-score is inactive: -0.26.

Turning to “CCAUCUCGCUACCAUGCAATT against F830020C16Rik”, the z-score was inactive: 0.584.

Take CCCAACUAUACUGUCUACUTT against Slc22a6: the z-score was inactive: -1.44.

On to GCCUACUUGGAUGUUAAUGTT against Pappa, for which the z-score is inactive: -0.378.

Regarding CCCUGUAACCAAUAAGAAGTT against Snrpa1, the z-score was inactive: 0.474.

As to CGGAUGCCGCUGAUAAGAUTT against Pofut2, the z-score was inactive: 0.237.

With “GGCAGUCAGGAAAUGCUUGTT against 2510027J23Rik”, the z-score is inactive: 1.78.

As to GGGUUGGAGAUAGGUUUUUTT against Rundc1, the z-score was inactive: -0.36.

Turning to GUGGUGGGAUACACCAACUTT against Pgbpll, the z-score is inactive: 0.858.

For the sequence GGGUUGAAAGAGCUUGCCATT against V1ri3, the z-score was inactive: -0.649.

As to CGAUGAUUCCAAGUUUGGCTT against Pinx1, the z-score is inactive: -0.772.

In the case of GCUACUUAAGGGUUUGGAUTT against Pcdhb3, the z-score is inactive: 2.89.

Turning to GGAACAGAGGAGGUAAAGCTT against Gtpbp2, the z-score was inactive: 0.926.

On to GGAGCUUGAAAUGCUUGGUTT against Dscr2, for which the z-score is inactive: -2.13.
